# From doi:10.1101/2021.07.23.453513
# Amino acid sequences for entries named in this document (tags omitted).
# UniProt Q9CQW9: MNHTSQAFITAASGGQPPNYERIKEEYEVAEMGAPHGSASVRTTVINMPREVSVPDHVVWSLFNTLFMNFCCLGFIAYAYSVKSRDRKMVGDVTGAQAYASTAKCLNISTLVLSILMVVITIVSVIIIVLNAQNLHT
# UniProt Q60870: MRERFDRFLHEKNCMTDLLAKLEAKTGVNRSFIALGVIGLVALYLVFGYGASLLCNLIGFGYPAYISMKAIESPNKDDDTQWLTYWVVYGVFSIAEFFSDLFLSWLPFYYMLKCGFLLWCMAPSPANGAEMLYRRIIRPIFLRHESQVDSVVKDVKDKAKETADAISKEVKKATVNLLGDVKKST
# B1: Ifitm1 (protein, UniProt Q9D103 1-106)
# chain: MPKEQQEVVVLGSPHISTSATATTINMPEISTPDHVVWSLFNTLFMNFCCLGFVAYAYSVKSRDRKMVGDTTGAQAFASTAKCLNISSLFFTILTAIVVIVVCAIR
# B2: Ifitm2 (protein, UniProt Q99J93 1-144)
# chain: MSHNSQAFLSTNAGLPPSYETIKEEYGVTELGEPSNSAVVRTTVINMPREVSVPDHVVWSLFNTLFFNACCLGFVAYAYSVKSRDRKMVGDVVGAQAYASTAKCLNISSLIFSILMVIICIIIFSTTSVVVFQSFAQRTPHSGF
# B3: PRA1 family protein 3 (Arl6ip5, Praf3) (protein, UniProt Q8R5J9 1-188)
# chain: MDVNLAPLRAWDDFFPGSDRFARPDFRDISKWNNRVVSNLLYYQTNYLVVAAMMISVVGFLSPFNMILGGVIVVLVFMGFVWAAHNKDILRRMKKQYPTAFVMVVMLASYFLISMFGGVMVFVFGITLPLLLMFIHASLRLRNLKNKLENKMEGIGLKKTPMGIILDALEQQEDNINKFADYISKARE
# B4: Rtn3 (reticulon family) (protein, UniProt Q9ES97 1-964)
# chain: MAESSAATQSPSVSSSSSGAEPSALGGGGGSPGACPALGAKSCGSSCADSFVSSSSSQPVSIFSTSQAGLSSLCSDEPPSKSMTSSFLSSSEIHNPDPTTPLGEKSETLGSQFVLAKGKDPLVLLDKKKLDSPQGTNKDRVDAPVSLATGIPCSHPSIPDSFPEQPAFLSKEIGPAEEWVVKDQEPKNPNKVPDGEDRSALDFGQSKAEHICTYSLSPSELPVASVEKDSPESPFEVIIDKATFDREFKDLYKENPNDLGGWAAHGDRESPADLLEMNDKLFPLRNKEAGRYPSSVLLGRQFSHTTAALEEVSRCVNDMHNFTNEILTWDLDPQAKQQANKTSCTTESTGLDRSELRSEIPVINLKTNPQQKMPVCSFNGSTPITKSTGDWTEAFTEGKPVRDYLSSTKEAGGNGVPGSSQLHSELPGSMPEKWVSGSGAATVEVTLPNLRGAWPNSVMGEVTEVDSSGESDDTVIEDITEKPDSLPSAAAKTSEREIKETPSRETVRSEMCENSEQPQAQPETPTQKSLEGEVASQVPNTLNEVTPEKLDMTNNPKVCSAAPPSVLNETGFSLTVPASAKLESLLGKYVEDTDGSSPEDLMAVLTGAEEKGIVDKEEGDVLEAVLEKIADFKNTLPVELLHESELSGSETKNIKSKYSEDSRETTGGAPTMSPDLEQEQLTIRAIKELGERQAEKVQDEGISSGGKLKQTFAPQSGPQSSSDILEHTDVKTGSDLGIPKNPTIIKNTRIDSISSLTKTEMVNKNVLARLLSDFPVHDLIFWRDVKKTGFVFGTTLIMLLSLAAFSVISVVSYLILALLSVTISFRVYKSVIQAVQKSEEGHPFKAYLDVDITLSSEAFHNYMNAAMVHVNKALKLIIRLFLVEDLVDSLKLAVFMWLMTYVGAVFNGITLLILAELLVFSVPIVYEKYKTQIDHYVGIARDQTKSIVEKIQAKLPGIAKKKAE
# Target: Interferon induced transmembrane protein 3 (Ifitm3) (mouse (endogenous in BM-DCs)) (UniProt Q9CQW9)
# Assay: affinity purification with mass spectrometry
molecule,measurement,value
receptor enhancing expression protein 5 (Reep5) (from UniProt Q60870 1-185),binding,binds
B1,binding,binds
B2,binding,binds
B3,binding,binds
B4,binding,binds

# These are yes or no findings as the source states them, for the method shown. In cells and extracts the contact can be indirect. These calls come from enrichment with a bait or labelling near it, and not all partners need be listed.
